The values that follow come from US10058577B2, “Thermo-stable strains, products and methods thereof” (TRIPHASE PHARMACEUTICALS PVT. LTD., priority 2014, dated 2018).

The subject of this assay is Lactobacillus acidophilus TSP-La1. Put plainly: Antibiotic susceptibility by disk diffusion method. The format is cell-based. The method, then: In order to ascertain the sensitivity of the thermostable strains in the food products towards antibiotics, Antibiotic susceptibility profile for Lactobacillus acidophilus is created by disk diffusion method. The susceptibility criteria used is established by Charteris et al. The Lactobacillus acidophilus is grown in Man Rogosa Sharpe Agar (MRSA).
67.15 grams is suspended in 1000 ml distilled water and heated to boiling to dissolve the medium completely. It is sterilized by autoclaving at 15 lbs pressure (121° C.) for 20 minutes, mixed well and poured into sterile Petri plates.
The table below depicts the results carried out for a list of common antibiotics. The concentration of the tested antibiotics has been included depending upon their minimum inhibitory concentrations.
Background: In agar diffusion tests the substance spreads into inoculated agar from a disc or well.

The structures appear in SMILES notation.

As to `O=C(O)c1cn(C2CC2)c2cc(N3CCNCC3)c(F)cc2c1=O` [Ciprofloxacin], the Resistant/Sensitive entry (10 μg) is recorded as “Sensitive”. In addition, for the setting “Lactobacillus acidophilus, TSPLA1, 10 μg, read-out: MIC Results”, the zone of inhibition at 10 µg/disc worked out at 22 mm.
